Common to all, as to assay: co-purification (glutathione-sepharose affinity, then gel filtration); subunits co-expressed in yeast; complex captured from the cell extract by the GST-tagged subunit on glutathione-sepharose, released with PreScission protease, then gel filtration on Superdex PC200 3.2/30 (1x GBB150)
In one test the target is T1, GST-Mec3 (yeast) (UniProt Q02574).
T1 sequence: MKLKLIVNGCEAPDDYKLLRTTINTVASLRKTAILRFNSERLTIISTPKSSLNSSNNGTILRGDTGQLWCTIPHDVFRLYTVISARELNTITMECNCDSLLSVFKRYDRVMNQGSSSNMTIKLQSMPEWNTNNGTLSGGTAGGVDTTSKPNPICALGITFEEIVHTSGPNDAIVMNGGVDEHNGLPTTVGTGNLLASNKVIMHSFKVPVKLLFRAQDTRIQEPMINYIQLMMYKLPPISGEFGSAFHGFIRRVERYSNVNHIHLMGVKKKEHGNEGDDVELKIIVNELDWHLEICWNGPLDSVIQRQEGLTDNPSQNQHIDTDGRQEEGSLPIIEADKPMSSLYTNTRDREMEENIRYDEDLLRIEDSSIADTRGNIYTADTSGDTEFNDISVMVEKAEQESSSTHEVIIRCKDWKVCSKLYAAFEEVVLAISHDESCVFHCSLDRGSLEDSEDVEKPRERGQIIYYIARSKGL

Protein sequences, listed by entry. Tags and fused reporters are not part of them.
UniProt P21951: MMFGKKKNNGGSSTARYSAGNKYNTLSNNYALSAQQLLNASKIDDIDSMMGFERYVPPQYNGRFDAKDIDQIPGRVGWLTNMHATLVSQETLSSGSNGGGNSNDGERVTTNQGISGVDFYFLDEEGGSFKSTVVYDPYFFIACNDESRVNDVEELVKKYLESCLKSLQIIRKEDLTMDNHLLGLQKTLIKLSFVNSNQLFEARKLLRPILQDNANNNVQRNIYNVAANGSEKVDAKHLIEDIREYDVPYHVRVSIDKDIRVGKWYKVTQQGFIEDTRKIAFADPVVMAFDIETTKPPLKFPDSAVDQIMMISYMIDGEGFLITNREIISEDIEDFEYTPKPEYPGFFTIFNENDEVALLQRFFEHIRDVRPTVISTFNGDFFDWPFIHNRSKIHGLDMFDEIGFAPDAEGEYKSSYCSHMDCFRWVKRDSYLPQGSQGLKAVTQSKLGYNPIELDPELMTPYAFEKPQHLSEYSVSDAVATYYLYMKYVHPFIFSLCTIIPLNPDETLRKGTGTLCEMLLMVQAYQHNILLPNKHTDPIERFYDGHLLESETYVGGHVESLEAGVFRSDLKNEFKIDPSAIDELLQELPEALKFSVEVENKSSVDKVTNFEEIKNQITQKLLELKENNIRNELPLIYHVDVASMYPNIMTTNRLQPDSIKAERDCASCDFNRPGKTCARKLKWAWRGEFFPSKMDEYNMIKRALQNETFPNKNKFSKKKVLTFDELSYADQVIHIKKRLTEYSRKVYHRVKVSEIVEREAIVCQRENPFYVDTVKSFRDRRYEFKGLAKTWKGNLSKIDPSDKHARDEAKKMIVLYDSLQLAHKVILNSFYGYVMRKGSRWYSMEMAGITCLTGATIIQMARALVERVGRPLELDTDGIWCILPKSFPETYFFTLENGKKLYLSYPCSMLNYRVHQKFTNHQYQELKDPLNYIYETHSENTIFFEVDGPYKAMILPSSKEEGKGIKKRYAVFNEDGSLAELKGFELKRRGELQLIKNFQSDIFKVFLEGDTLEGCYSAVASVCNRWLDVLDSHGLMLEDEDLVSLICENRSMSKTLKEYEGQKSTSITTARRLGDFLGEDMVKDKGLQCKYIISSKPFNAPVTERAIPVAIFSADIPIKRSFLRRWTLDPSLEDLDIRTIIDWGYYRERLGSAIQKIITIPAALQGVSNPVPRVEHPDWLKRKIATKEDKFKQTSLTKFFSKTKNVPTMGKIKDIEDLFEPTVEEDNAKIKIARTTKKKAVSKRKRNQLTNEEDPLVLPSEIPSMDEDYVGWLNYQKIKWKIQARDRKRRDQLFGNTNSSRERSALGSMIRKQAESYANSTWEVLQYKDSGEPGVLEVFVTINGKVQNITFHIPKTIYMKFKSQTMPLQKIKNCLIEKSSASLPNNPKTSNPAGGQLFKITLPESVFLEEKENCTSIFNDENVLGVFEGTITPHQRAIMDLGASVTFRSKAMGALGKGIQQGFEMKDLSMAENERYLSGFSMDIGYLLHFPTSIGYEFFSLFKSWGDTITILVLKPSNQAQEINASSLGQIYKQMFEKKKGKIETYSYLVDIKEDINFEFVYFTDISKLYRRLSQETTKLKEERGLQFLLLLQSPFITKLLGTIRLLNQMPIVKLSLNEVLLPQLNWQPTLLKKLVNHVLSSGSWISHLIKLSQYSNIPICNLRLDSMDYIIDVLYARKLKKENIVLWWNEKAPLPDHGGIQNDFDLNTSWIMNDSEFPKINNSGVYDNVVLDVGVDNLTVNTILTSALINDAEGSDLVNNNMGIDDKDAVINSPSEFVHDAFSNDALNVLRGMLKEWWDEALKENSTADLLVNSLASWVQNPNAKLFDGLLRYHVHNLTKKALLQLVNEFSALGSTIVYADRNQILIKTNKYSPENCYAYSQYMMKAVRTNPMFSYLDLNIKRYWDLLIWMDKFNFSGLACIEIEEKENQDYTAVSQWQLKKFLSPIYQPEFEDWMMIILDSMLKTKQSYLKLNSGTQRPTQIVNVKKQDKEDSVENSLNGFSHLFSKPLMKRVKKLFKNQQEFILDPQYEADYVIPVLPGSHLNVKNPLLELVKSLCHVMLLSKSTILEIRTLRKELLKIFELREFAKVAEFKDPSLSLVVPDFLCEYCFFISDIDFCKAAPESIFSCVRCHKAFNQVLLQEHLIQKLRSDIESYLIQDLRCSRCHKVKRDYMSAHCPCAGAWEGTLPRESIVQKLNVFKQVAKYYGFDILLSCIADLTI

The target in test [1] is GST-tagged Pol2, full length (bait of the Polε holoenzyme purification) (Saccharomyces cerevisiae) (UniProt P21951).
The target in another test is T2, GST-Rad24 (yeast) (UniProt P32641).
T2 sequence: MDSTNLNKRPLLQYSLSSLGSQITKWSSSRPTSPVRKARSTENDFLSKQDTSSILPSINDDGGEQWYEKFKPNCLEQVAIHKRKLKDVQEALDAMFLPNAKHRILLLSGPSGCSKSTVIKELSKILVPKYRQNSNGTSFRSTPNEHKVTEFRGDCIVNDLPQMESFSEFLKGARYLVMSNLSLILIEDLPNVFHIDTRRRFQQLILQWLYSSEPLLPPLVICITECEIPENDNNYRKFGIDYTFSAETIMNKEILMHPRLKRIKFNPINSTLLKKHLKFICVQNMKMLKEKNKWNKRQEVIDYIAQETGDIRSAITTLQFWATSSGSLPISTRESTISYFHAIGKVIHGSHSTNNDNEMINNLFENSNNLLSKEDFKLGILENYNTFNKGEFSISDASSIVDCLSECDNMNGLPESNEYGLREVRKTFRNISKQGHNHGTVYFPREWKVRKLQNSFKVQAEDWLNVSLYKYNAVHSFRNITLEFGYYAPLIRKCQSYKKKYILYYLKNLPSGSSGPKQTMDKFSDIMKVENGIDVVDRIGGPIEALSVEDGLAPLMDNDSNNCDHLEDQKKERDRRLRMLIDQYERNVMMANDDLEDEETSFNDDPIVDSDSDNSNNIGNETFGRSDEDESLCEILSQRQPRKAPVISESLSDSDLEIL

The results in this text go back to publication PMC9791402, “Yeast 9-1-1 complex acts as a sliding clamp for DNA synthesis by DNA polymerase ε” (The Journal of Biological Chemistry, 2022).

Results are given in words; binding and its absence hold for the method and conditions named. Some entries that bind do so weakly or less than the wild type. For part of these data: Where a sequence is shown, tags or fusion partners need not be part of it.

B1: Rad17 (protein, UniProt P48581 1-401)
chain: MRINSELANKFSASTVHLEHITTALSCLTPFGSKDDVLIFIDADGLSFVRENNHVIKIQLLLSRELFMSYSYRNETEDHMKLCVKINHILDSVSVMNRNSDDIVECTLSYDGHGSPFVLIFEDSFISERVEYSTYLIKDFDTNGLELDRERISFEAIIKGEALHSALKDLKEIGCKECYVYAKTEANDENVFALISKSQLGFSKIKLPSNRSILEKLQVFDGDSTTVIDGFAVIGFFDFTSFDKIRKSTKIASKVLFRMDVHGVLSVNILSQTDDVIITDTTRPSNNRPGSIRQLQLPKDYPGIVIEVCMLEKESIDEAAQTEIELLMETNELGNRNSFKKSTIRKRYGTDKGNETSNDNLLQLNGKKIKLPSEEENNKNRESEDEENHCKYPTKDIPIFF
Regarding B1, the binding entry with GST-Mec3 (yeast) is “binds”.

B2: Dpb3 (protein, UniProt P27344 1-201)
chain: MSNLVKEKAPVFPISKVKKIAKCDPEYVITSNVAISATAFAAELFVQNLVEESLVLAQLNSKGKTSLRLSLNSIEECVEKRDNFRFLEDAIKQLKKNSALDKKRELNMQPGRSDQEVVIEEPELHEDDGVEEEEEEDEVSEEEEPVHNEELLDDSKDQQNDKSTRSVASLLSRFQYKSALDVGEHSDSSDIEVDHTKSTDP
In the case of B2, the binding result in test [1] is “binds”.

B3: Dpb2 (protein, UniProt P24482 1-689)
chain: MFGSGNVLPVKIQPPLLRPLAYRVLSRKYGLSIKSDGLSALAEFVGTNIGANWRQGPATIKFLEQFAAVWKQQERGLFIDQSGVKEVIQEMKEREKVEWSHEHPIQHEENILGRTDDDENNSDDEMPIAADSSLQNVSLSSPMRQPTERDEYKQPFKPESSKALDWRDYFKVINASQQQRFSYNPHKMQFIFVPNKKQNGLGGIAGFLPDIEDKVQMFLTRYYLTNDRVMRNENFQNSDMFNPLSSMVSLQNELSNTNRQQQSSSMSITPIKNLLGRDAQNFLLLGLLNKNFKGNWSLEDPSGSVEIDISQTIPTQGHYYVPGCMVLVEGIYYSVGNKFHVTSMTLPPGERREITLETIGNLDLLGIHGISNNNFIARLDKDLKIRLHLLEKELTDHKFVILGANLFLDDLKIMTALSKILQKLNDDPPTLLIWQGSFTSVPVFASMSSRNISSSTQFKNNFDALATLLSRFDNLTENTTMIFIPGPNDLWGSMVSLGASGTLPQDPIPSAFTKKINKVCKNVVWSSNPTRIAYLSQEIVIFRDDLSGRFKRHRLEFPFNESEDVYTENDNMMSKDTDIVPIDELVKEPDQLPQKVQETRKLVKTILDQGHLSPFLDSLRPISWDLDHTLTLCPIPSTMVLCDTTSAQFDLTYNGCKVINPGSFIHNRRARYMEYVPSSKKTIQEEIYI
With B3, the binding entry in test [1] was “binds”.

B4: Ddc1 (protein, UniProt Q08949 1-612)
chain: MSFKATITESGKQNIWFRAIYVLSTIQDDIKITVTTNELIAWSMNETDTTLCQVRFQKSFFEEYEFKPHEIVFGENGVQVIEDTYGNSHKLYSFRVNGRHLTTISRKPDGDGIKSFTIAVNNTSTCPESLANRLIVVIEMDSLIVKEYCPQFQPIKYDPIIINLKYKRRFLDVFGTAASDRNPQEPLDPKLLDVFTNTERELTSALFNEEVESDIRKRNQLTAADEINYICCNSTLLKNFLDNCNVNVTDEVKLEINVHRLSITAFTKAVYGKNNDLLRNALSMSNTISTLDLEHYCLFTTIEDEKQDKRSHSKRREHMKSIIFKLKDFKNFITIGPSWKTTQDGNDNISLWFCHPGDPILMQMQKPGVKLELVEVTDSNINDDILEGKFIKTAISGSKEEAGLKDNKESCESPLKSKTALKRENLPHSVAGTRNSPLKVSYLTPDNGSTVAKTYRNNTARKLFVEEQSQSTNYEQDKRFRQASSVHMNMNREQSFDIGTTHEVACPRNESNSLKRSIADICNETEDPTQQSTFAKRADTTVTWGKALPAADDEVSCSNIDRKGMLKKEKLKHMQGLLNSQNDTSNHKKQDNKEMEDGLGLTQVEKPRGIFD
As for B4, the binding entry in the test with GST-Mec3 (yeast) is “binds”.

B5: Dpb4 (protein, UniProt Q04603 1-196)
chain: MPPKGWRKDAQGNYPTTSYIKEQENITIQDLLFPKSTIVNLAREVPQQSGKKLLINKDASLALQRGATVFVNHLLLFAREIAKSQDKKSCSVDDVLSALDHIGHSALKGPVRDKLDEYQAAVEQRKKEKLDSGEVDADGDIDMGEDKENVPVEKVKEHDEIEEQGDALQDVEESSEKKQKTESQDVETRVQNLEQT
With B5, the binding result in test [1] is given as “binds”.

B6: four small Rfc2–5 subunits (of Rad24-RFC) (complex, UniProt P40348 1-353; P38629 1-340; P40339 1-323; P38251 1-354)
chain 1: MFEGFGPNKKRKISKLAAEQSLAQQPWVEKYRPKNLDEVTAQDHAVTVLKKTLKSANLPHMLFYGPPGTGKTSTILALTKELYGPDLMKSRILELNASDERGISIVREKVKNFARLTVSKPSKHDLENYPCPPYKIIILDEADSMTADAQSALRRTMETYSGVTRFCLICNYVTRIIDPLASRCSKFRFKALDASNAIDRLRFISEQENVKCDDGVLERILDISAGDLRRGITLLQSASKGAQYLGDGKNITSTQVEELAGVVPHDILIEIVEKVKSGDFDEIKKYVNTFMKSGWSAASVVNQLHEYYITNDNFDTNFKNQISWLLFTTDSRLNNGTNEHIQLLNLLVKISQL
chain 2: MSTSTEKRSKENLPWVEKYRPETLDEVYGQNEVITTVRKFVDEGKLPHLLFYGPPGTGKTSTIVALAREIYGKNYSNMVLELNASDDRGIDVVRNQIKDFASTRQIFSKGFKLIILDEADAMTNAAQNALRRVIERYTKNTRFCVLANYAHKLTPALLSRCTRFRFQPLPQEAIERRIANVLVHEKLKLSPNAEKALIELSNGDMRRVLNVLQSCKATLDNPDEDEISDDVIYECCGAPRPSDLKAVLKSILEDDWGTAHYTLNKVRSAKGLALIDLIEGIVKILEDYELQNEETRVHLLTKLADIEYSISKGGNDQIQGSAVIGAIKASFENETVKANV
chain 3: MSKTLSLQLPWVEKYRPQVLSDIVGNKETIDRLQQIAKDGNMPHMIISGMPGIGKTTSVHCLAHELLGRSYADGVLELNASDDRGIDVVRNQIKHFAQKKLHLPPGKHKIVILDEADSMTAGAQQALRRTMELYSNSTRFAFACNQSNKIIEPLQSRCAILRYSKLSDEDVLKRLLQIIKLEDVKYTNDGLEAIIFTAEGDMRQAINNLQSTVAGHGLVNADNVFKIVDSPHPLIVKKMLLASNLEDSIQILRTDLWKKGYSSIDIVTTSFRVTKNLAQVKESVRLEMIKEIGLTHMRILEGVGTYLQLASMLAKIHKLNNKA
chain 4: MSLWVDKYRPKSLNALSHNEELTNFLKSLSDQPRDLPHLLLYGPNGTGKKTRCMALLESIFGPGVYRLKIDVRQFVTASNRKLELNVVSSPYHLEITPSDMGNNDRIVIQELLKEVAQMEQVDFQDSKDGLAHRYKCVIINEANSLTKDAQAALRRTMEKYSKNIRLIMVCDSMSPIIAPIKSRCLLIRCPAPSDSEISTILSDVVTNERIQLETKDILKRIAQASNGNLRVSLLMLESMALNNELALKSSSPIIKPDWIIVIHKLTRKIVKERSVNSLIECRAVLYDLLAHCIPANIILKELTFSLLDVETLNTTNKSSIIEYSSVFDERLSLGNKAIFHLEGFIAKVMCCLD
For the molecule B6, the binding result with GST-Rad24 (yeast) was “binds”.
